Record: PubChem BioAssay AID1224828 (NIAID, 2016)
Test: 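Knock-downs that increase or decrease LPS-induced p65 nuclear translocation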 (primary screen). Cells: mouse RAW264.7 G9 macrophage reporter cells (GFP-p65, Tnf promoter-mCherry). Knock-down reagent: siRNA pool against mouse genes, 100 nM. Time to read-out: 2 days siRNA transfection, then 40 min LPS before fixation. Conditions: LPS (Salmonella minnesota R595) at 10 ng/ml. Detection: 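Imaged p65 nuclear translocation ratio, normalised to the plate median, converted to robust z-scores and averaged across two replicates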. Reading the numbers: p65 translocation robust z-score: higher = more nuclear NF-kappaB p65 after LPS than the plate median; nuclear/cytoplasmic p65 ratio: higher = more nuclear NF-kappaB p65. Rule for the call: 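Called active when z exceeds 3.3 or falls under -1.56 (median of Tlr4 controls), giving activity score of at least 50; no calls for control wells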. Calls: active = hit (p65 shift raised or lowered); inactive = no clear change.
Here is a random part of about 17,000 deposited reagents. 762 of them (4.5%) were called active. 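Active calls include both raised and lowered p65 entry, mostly lowered; wells with fewer than 50 cells lack a z-score.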 The raw values are shown without normalisation.

| gene symbol | p65 translocation robust z-score | nuclear/cytoplasmic p65 ratio, rep 1 | nuclear/cytoplasmic p65 ratio, rep 2 | low cell count flag | outcome |
| --- | --- | --- | --- | --- | --- |
| Slc1a1 | -0.05 | 1.61 | 1.42 | enough cells to score | inactive |
| Ephb3 (Eph receptor B3) | 1 | 1.91 | 1.46 | enough cells to score | inactive |
| Cyp2c40 (cytochrome P450, family 2, subfamily c, polypeptide 40) | 0.63 | 1.52 | 2.05 | enough cells to score | inactive |
| Paqr7 (progestin and adipoQ receptor family member VII) | -0.12 | 1.48 | 1.33 | enough cells to score | inactive |
| D930031A20Rik (RIKEN cDNA D930031A20 gene) | -0.17 | 1.49 | 1.58 | enough cells to score | inactive |
| Tdpoz5 (TD and POZ domain containing 5) | 0.28 | 1.39 | 1.23 | enough cells to score | inactive |
| Gpr139 (G protein-coupled receptor 139) | -0.73 | 1.36 | 1.52 | enough cells to score | inactive |
| Mthfd1 | 0.87 | 1.63 | 1.39 | enough cells to score | inactive |
| Xkrx (XK related, X-linked) | -0.21 | 1.26 | 1.5 | enough cells to score | inactive |
| Tfec (transcription factor EC) | 0.09 | 1.57 | 1.49 | enough cells to score | inactive |
| Ackr5 (atypical chemokine receptor 5) | 1.36 | 1.66 | 1.82 | enough cells to score | inactive |
| Ctif (CBP80/20-dependent translation initiation factor) | -2.22 | 1.31 | 1.24 | enough cells to score | active |
| Prl3c1 (prolactin family 3, subfamily c, member 1) | 0.79 | 1.57 | 1.23 | enough cells to score | inactive |
| Fam185a (family with sequence similarity 185, member A) | -0.85 | 1.47 | 1.56 | enough cells to score | inactive |
| Reep6 (receptor accessory protein 6) | – | 1.58 | 1.49 | fewer than 50 cells per well; well left out of scoring | inactive |
| AI597479 (expressed sequence AI597479) | 1.06 | 1.74 | 1.87 | enough cells to score | inactive |
| Ccr8 (C-C motif chemokine receptor 8) | – | 1.52 | 1.57 | fewer than 50 cells per well; well left out of scoring | inactive |
| Or12d12 (olfactory receptor family 12 subfamily D member 12) | -0.57 | 1.61 | 1.46 | enough cells to score | inactive |
| Aoc1 (amine oxidase, copper-containing 1) | 0.71 | 1.79 | 1.65 | enough cells to score | inactive |
| Il12b (interleukin 12b) | -0.11 | 1.45 | 1.33 | enough cells to score | inactive |
| Gpr37 (G protein-coupled receptor 37) | 0.72 | 1.6 | 1.69 | enough cells to score | inactive |
| Spsb4 (splA/ryanodine receptor domain and SOCS box containing 4) | – | 1.39 | 1.13 | fewer than 50 cells per well; well left out of scoring | inactive |
| Fam171b (family with sequence similarity 171, member B) | 0.7 | 1.65 | 1.56 | enough cells to score | inactive |
| Aoc1l2 (amine oxidase copper containing 1-like 2) | 0.04 | 1.58 | 1.42 | enough cells to score | inactive |
| Or9i14 (olfactory receptor family 9 subfamily I member 14) | -0.78 | 1.44 | 1.36 | enough cells to score | inactive |
| Dsg3 (desmoglein 3) | 0.14 | 1.72 | 1.38 | enough cells to score | inactive |
| Ifna6 (interferon alpha 6) | -0.99 | 1.33 | 1.26 | enough cells to score | inactive |
| Cntnap4 (contactin associated protein-like 4) | 0.71 | 1.42 | 1.89 | enough cells to score | inactive |
| Arpc4 (actin related protein 2/3 complex, subunit 4) | -0.28 | 1.61 | 1.54 | enough cells to score | inactive |
| Ccdc180 (coiled-coil domain containing 180) | 1.66 | 1.66 | 1.6 | enough cells to score | inactive |
| Irx3os (iroquois homeobox 3, opposite strand) | -0.22 | 1.59 | 1.47 | enough cells to score | inactive |
| Irf7 (interferon regulatory factor 7) | 0.44 | 1.55 | 1.42 | enough cells to score | inactive |
| F11 (coagulation factor XI) | 2.85 | 1.95 | 1.64 | enough cells to score | inactive |
| Axl (AXL receptor tyrosine kinase) | -1.02 | 1.53 | 1.26 | enough cells to score | inactive |
| Stx6 (syntaxin 6) | 0.41 | 1.46 | 1.29 | enough cells to score | inactive |
| Lias (lipoic acid synthetase) | 0.03 | 1.73 | 1.44 | enough cells to score | inactive |
| Proz (protein Z, vitamin K-dependent plasma glycoprotein) | -0.66 | 1.43 | 1.31 | enough cells to score | inactive |
| Trim8 (tripartite motif-containing 8) | -0.7 | 1.43 | 1.39 | enough cells to score | inactive |
| Cwh43 (cell wall biogenesis 43 C-terminal homolog) | – | 1.12 | 1.4 | fewer than 50 cells per well; well left out of scoring | inactive |
| Mc2r (melanocortin 2 receptor) | -0.08 | 1.46 | 1.61 | enough cells to score | inactive |

5 entries from above, ordered by “nuclear/cytoplasmic p65 ratio, rep 2”, lowest first.
| gene symbol | p65 translocation robust z-score | nuclear/cytoplasmic p65 ratio, rep 1 | nuclear/cytoplasmic p65 ratio, rep 2 | low cell count flag | outcome |
| --- | --- | --- | --- | --- | --- |
| Paqr7 (progestin and adipoQ receptor family member VII) | -0.12 | 1.48 | 1.33 | enough cells to score | inactive |
| Slc1a1 | -0.05 | 1.61 | 1.42 | enough cells to score | inactive |
| Ephb3 (Eph receptor B3) | 1 | 1.91 | 1.46 | enough cells to score | inactive |
| D930031A20Rik (RIKEN cDNA D930031A20 gene) | -0.17 | 1.49 | 1.58 | enough cells to score | inactive |
| Cyp2c40 (cytochrome P450, family 2, subfamily c, polypeptide 40) | 0.63 | 1.52 | 2.05 | enough cells to score | inactive |
